In PubChem BioAssay AID1508600 (Functional Genomics Laboratory (NCATS/FGL), 2020):
The campaign covered roughly 53,000 sequences. About 3,700 (7%) were called active.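 The calls were made as follows: active = gene knockdowns whose robust z-score for IL-1 alpha signal is at least 2 or at most -2, so actives lie on both sides; inactive = the rest.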 The list shows a part of the results.

Assay: Components of the Cytosolic LPS Sensing Pathway: Gene Identification via Genome-wide siRNA Screen;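 also: robust z of the log signal after scaling to non-targeting control siRNA wells of the plate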
Details: RAW264.7 macrophages, IL-1a HTRF, actives lie on both sides, screened at 100 nM (by protocol), cells primed 5 h with Pam3CSK4 first
In short: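 Knockdown: 100 nM siRNA, 48h, RAW264.7. Stimulation: Pam3CSK4 5 h, then LipidA via TransIT-TKO 24 h. Output: supernatant IL-1a HTRF, negative-control-normalized, log robust z-score; viability by CellTiter-Glo.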

Sequence	z-score
GGGCAUCUCUCCUGAAUACTT against Mbip	inactive: 0.00751
CGAUCAUAUACAGACACAUTT against Ms4a4d	inactive: 1.7
GCCACAGAGCUAGACUGUCTT against Wdr86	inactive: 0.241
GGAAACAUCGCCUCAAACATT against Gjb4	inactive: -0.332
GCCCUGUUCCAAAUGUAACTT against BC061195	inactive: 0.255
CGUAGUCAUUACUCUAAUATT against Capns1	inactive: 0.892
GGAGCAUGAUCCUUCAUAATT against Armc12	inactive: 1.96
GGCCCUGGUAGCUUAUUACTT against Rps16	inactive: 0.762
GGAAGACUUUAUGUGCACCTT against Tbx4	inactive: -0.145
GGCUUUACACUGCUAGCUCTT against Fbxl2	inactive: -0.0512
GGCUAUUUCGAUGCUCUGGTT against Baiap2	inactive: -1.05
GGCUAUCACAGGGAUCCUATT against Ppl	inactive: -0.739
GGCGGUGUUUUACUACAAGTT against Capn7	active: 3.99
GCUCCAGCUUGCACUCUUGTT against Trp53i13	inactive: 1.36
GCUACGUUCAGUUCCAUUGTT against Eddm3b	inactive: -0.321
GGAGAAUUAGAAGUUUCUGTT against Ccdc40	inactive: -0.252
GCAGUACUAAGGAAGAUAUTT against Nudcd1	inactive: -0.842
GGAUUCCGUGCAUUUGUGATT against Atad3a	inactive: -0.113
GGAGAGCUCUGGAAGCUUUTT against Ppara	inactive: 0.913
CCACCUUGGUCUAAUUUCUTT against Slitrk4	active: -2.06
GCGGAAGGCACAGAUAGAATT against Ift74	inactive: 0.67
GGCAAAAGCACUGAAGAGATT against Ar	inactive: -0.63

Sequence	z-score
GCUUGAUGAGAAAUCAACUTT against Map2	inactive: 0.345
CGUGGACUUAAUAUUUCAGTT against Btbd7	inactive: 0.685
GGACACAGCAAGAAGAUACTT against Wfdc12	inactive: -1.79
UGCAAAGAUUGUCUCCUCCTT against Olfr255	inactive: -0.0738
GCUCAAUUCUGCAAGACAUTT against Olfr543	inactive: 1.44
CCUGUUGAGUACUGUGCUGTT against Olfr987	inactive: -0.437
GGAUCUGUGACUUUAACUUTT against Gm5105	inactive: 0.252
GGAGCAACUACAAACAUCUTT against Acss2	active: 2.35
CGUACCACGGAGGACUUAUTT against Dpf3	inactive: -1.35
GGAGAUUGUGCGCCGUAACTT against Casr	inactive: 0.262
CCCUGGGCAGUUUGCAUGUTT against Dgcr2	inactive: 0.815
AACCUCUCCUUCUUAGACATT against Olfr724	inactive: 0.814
GGUUGGCAAGUCCUUUUGUTT against Zfp759	inactive: -1.82
GGUGACUUGCUUUAGAAAATT against Tnfaip8l1	inactive: 0.184
GGGAGUAUGAUUUUGAGGATT against Iffo1	inactive: 0.303
GCGCAGUAUCCACUUCAAUTT against Pcsk7	inactive: -0.435
GGAAAUCCUGGGACAGAACTT against Htatip2	active: -2.42
GGCCAAAUACUGAAUAUUCTT against Ssb	inactive: 0.065
GGGCUCUGCGCUACUUAAATT against Zfp358	inactive: -0.643
GCAACAUUCCAGGGCUGAATT against Dnmt3l	inactive: 0.229
GGAGCUCUGAGGCUUAUAGTT against Prop1	inactive: -1.32
GGGAAGCAGUAUUUAAUCATT against Hc	inactive: 1.25

Sequence	z-score
GGAAAAGCCGCACUUUAUATT against Mier2	inactive: 1.01
GCUACCACUUCUUUAAUAATT against Cdc73	inactive: -1.6
GGAGAUAAUUCAUUAUGGCTT against Zfpm2	inactive: 0.28
GGUCAAAGUUGGAAAUUGCTT against Acbd6	inactive: 1.33
GGAGUUGUGGAAUUCUCUATT against Extl2	inactive: -1.3
GCUAAAGCUAAGAUUGAAGTT against Poli	inactive: -0.0266
GGAACUACAACAGAAACGATT against Cep131	inactive: -1.42
GCCAUCAAAGAAUAUGUUUTT against Sf3b3	inactive: -1.57
GGAUCUAAGGUGAACAAGATT against Rpl3	inactive: 0.472
GCAAUCUUUUAUACGUGCCTT against Cmtm1	inactive: -1.29
GGUGGGAAGAGGAAUACACTT against Iffo1	active: 4.73
GGUUUUUGAGUGGGAGACCTT against Khdc3	inactive: -0.578
GGGAUUUUGUCAUCUAUUCTT against Btf3l4	inactive: 0.401
GGCACUUUUUGGAAAAAACTT against Mkrn1	inactive: -1.78
GUAUUUGGGACUGAAUUGCTT against Maf	inactive: 0.643
CCAAAUGCAACAAAGGUAATT against Maob	inactive: -0.545
GGACUGGUCAGAGAUGGAUTT against Pced1a	active: 5.33
GGGUGUAGUUUUUGAGGAGTT against Pprc1	inactive: 0.708
GCAUCCUGGCUUAUCCAUUTT against Hmgb1	inactive: -0.393
GGUAAAUGUGAAUGUAAGGTT against Ntn4	inactive: 0.73
CCCUGAUUAAUGGUUCUAUTT against Sorl1	inactive: 1.7
GCUUCACUCUCUUCUUUGCTT against Olfr1463	active: -3.05

Quoted at random: 2 entries already listed, in no set order.
Sequence	z-score
CGUGGACUUAAUAUUUCAGTT against Btbd7	inactive: 0.685
GCUAAAGCUAAGAUUGAAGTT against Poli	inactive: -0.0266

Further entries

Sequence	z-score
GGAGGAAGCUGAACUCUGGTT against Ehmt2	inactive: -0.655
CCCUAGCCAUAUGGAAUAUTT against 9130230L23Rik	inactive: 0.145
GGAAGAGGUUGAGAUCCAATT against Pogk	inactive: -0.655
GGAUGCCUUGAAGAAAUUATT against Olfr1044	inactive: 1.34
GGAUUUUUCUAAUCGCUUGTT against Zfp646	inactive: 0.343
GGAAGUUGACAAAAUAGUGTT against Dlgap5	inactive: 0.389
GGAAGGACUGAGGUAUCAUTT against Gtf2f2	inactive: 0.595
GCAGUGACCUGCCACUGAATT against Cd79b	inactive: 0.741
GGAUUCUGCUAGCAGUUCATT against Csn1s2a	inactive: -0.477
GGAAUAUUGAUGUUUCAACTT against Ncaph	inactive: 0.553
GGAAUGGAACUUGUCUGGGTT against Gpr37	inactive: -0.123
GGAACGAGAAAUGAUCCAGTT against Ap1g1	inactive: 0.221
GCGGAGGUUUCCUCCUUAATT against Fem1c	inactive: 0.8
GGGAAAGAAAGUGAUUGUCTT against Hsd11b1	inactive: 0.353
GGCUAGCAAAUCCUACUGGTT against Mpl	inactive: -1.51
GGGUUUCUGUUAAUCCACATT against H3c8	inactive: -1.38
GGCAAGGAAUCAAUGUCUCTT against Fscn2	inactive: -0.229
CGGAACCUUAUUUAAAACUTT against Sirt5	inactive: 0.732
GGAGGAAGAGGAGUAAAGGTT against Hoxa7	inactive: 0.052
GCUUACUUCCAAGGUCUACTT against Ptch2	inactive: 0.905
GGCCUUUAACUUGUAAAUATT against Hlx	inactive: -0.485
GGGCUCUAGCUAAAAACGATT against Med10	inactive: 1.23

Taken from above.
Value of GGAGGAAGAGGAGUAAAGGTT against Hoxa7 under z-score: inactive: 0.052
Value of GGAAUGGAACUUGUCUGGGTT against Gpr37 under z-score: inactive: -0.123
Value of GGAAGUUGACAAAAUAGUGTT against Dlgap5 under z-score: inactive: 0.389
Value of GGGCUCUAGCUAAAAACGATT against Med10 under z-score: inactive: 1.23

(cont.)

Sequence	z-score
GGAAGAAAAACAACCAAGUTT against Elovl4	inactive: 0.6
GCCGGCAUCAGCUGAUUUCTT against Igbp1	inactive: 0.382
GGCACAUGAGACAGCUUUUTT against Tmem160	inactive: 0.0311
GGAUCAGUCAUUUCUCUGCTT against Aox3	inactive: 0.0347
GGAUAUCGUUUUCCUUGUATT against Retn	inactive: -0.111
GGAGAAAAUUGAACUGAAATT against Cacna1c	inactive: 1.06
GCCAUUUGAAGGCUUUUGUTT against D130079A08Rik	inactive: -0.555
GCUAGUUUCCGUCGCUUUGTT against Cpeb4	inactive: 0.555
GGACAGUUCGUGUUUGGUUTT against Wdfy2	inactive: 0.0956
GGGCAAACUCACAUCUAAATT against Nsun5	inactive: -0.267
CGGUAGAGUGCUUACGCAATT against Camk2g	inactive: 0.869
GGACAUGGAUCAAAGUUCATT against Zfp40	inactive: -0.645
GCCUAUGGGAUUCGAAUUGTT against P2rx2	inactive: -0.484
CGCGUCAUUAUGAAAUGUUTT against Tmem163	inactive: 0.491
GAAAAAAUCUAUCUACCCUTT against Hoxb4	inactive: -0.219
GGCCAUGAGGAAAACAAGATT against Coro7	inactive: -1.01
CCGCUCAGUUCAUCUCAAATT against Snx15	inactive: -0.0551
GAACUACUACCGCUUAGCATT against Mrs2	inactive: 0.298
GCUAUGUUCUUGGAUGAUUTT against Vmn1r47	inactive: -1.58
